From patent US20240190922A1, “PEPTIDE PLATINUM COMPLEXES AND METHODS OF USE THEREOF” (priority 2020, published 2024)
pEC50: −log10 of the molar value. Some results were stated once for a whole list of compounds, not compound by compound.

Tested on: A375 cells (human skin melanoma derived cell line)
Experiment: A375 cell killing assay (CellTiter-Glo luminescence)
Format: cell-based
Details: 72 hours incubation
Method: Alternatively, A375 cells (human skin melanoma derived cell line) are harvested by centrifugation and then re-suspended in a culture medium. The cell density is adjusted, and cell suspension transferred to the assay multi-well plate. The marginal wells are filled with PBS. The assay plate is incubated in a cell incubator for about 16˜18 hours. Working solutions of test compounds and positive control at various concentrations are added to corresponding wells of the plate. The assay plate is then incubated for an additional 72 hours in a 37° C./5% CO2 incubator. After incubation, the working solution of CellTiter-Glo® reagent is added to the corresponding wells and shaken on an orbital shaker. The assay plate is incubated at room temperature for a short while to stabilize the luminescent signal. Luminescence signals are measured by a luminescence plate reader, such as PheraStar (BMG). Data are stored on a local computer or computer server for analysis.

Work on “Onco-003: formula (I): R1 and R2 form trans-R,R-1,2-diaminocyclohexane, R3 and R4 joined by bidentate peptide AcGPSRVGGCD” yielded a pEC50 of over 5.00.
